Results are given in words; binding and its absence hold for the method and conditions named.
Molecular target: TLR9 (UniProt Q9NR96)
Experiment: AlphaScreen or HTRF; AlphaScreen with streptavidin-conjugated donor beads and nickel chelate acceptor beads; 50 mM Tris-HCl pH 7.4, 100 mM NaCl, 1% BSA, 0.01% Tween 20; labeled TLR9 with varying concentrations of DWEYS, 30 min, room temperature; both purified

Protein sequences, listed by entry. Tags and fused reporters are not part of them. Lines headed by an entry give the natural chain unless they say otherwise; changes in a name come on top.
UniProt Q9NR96: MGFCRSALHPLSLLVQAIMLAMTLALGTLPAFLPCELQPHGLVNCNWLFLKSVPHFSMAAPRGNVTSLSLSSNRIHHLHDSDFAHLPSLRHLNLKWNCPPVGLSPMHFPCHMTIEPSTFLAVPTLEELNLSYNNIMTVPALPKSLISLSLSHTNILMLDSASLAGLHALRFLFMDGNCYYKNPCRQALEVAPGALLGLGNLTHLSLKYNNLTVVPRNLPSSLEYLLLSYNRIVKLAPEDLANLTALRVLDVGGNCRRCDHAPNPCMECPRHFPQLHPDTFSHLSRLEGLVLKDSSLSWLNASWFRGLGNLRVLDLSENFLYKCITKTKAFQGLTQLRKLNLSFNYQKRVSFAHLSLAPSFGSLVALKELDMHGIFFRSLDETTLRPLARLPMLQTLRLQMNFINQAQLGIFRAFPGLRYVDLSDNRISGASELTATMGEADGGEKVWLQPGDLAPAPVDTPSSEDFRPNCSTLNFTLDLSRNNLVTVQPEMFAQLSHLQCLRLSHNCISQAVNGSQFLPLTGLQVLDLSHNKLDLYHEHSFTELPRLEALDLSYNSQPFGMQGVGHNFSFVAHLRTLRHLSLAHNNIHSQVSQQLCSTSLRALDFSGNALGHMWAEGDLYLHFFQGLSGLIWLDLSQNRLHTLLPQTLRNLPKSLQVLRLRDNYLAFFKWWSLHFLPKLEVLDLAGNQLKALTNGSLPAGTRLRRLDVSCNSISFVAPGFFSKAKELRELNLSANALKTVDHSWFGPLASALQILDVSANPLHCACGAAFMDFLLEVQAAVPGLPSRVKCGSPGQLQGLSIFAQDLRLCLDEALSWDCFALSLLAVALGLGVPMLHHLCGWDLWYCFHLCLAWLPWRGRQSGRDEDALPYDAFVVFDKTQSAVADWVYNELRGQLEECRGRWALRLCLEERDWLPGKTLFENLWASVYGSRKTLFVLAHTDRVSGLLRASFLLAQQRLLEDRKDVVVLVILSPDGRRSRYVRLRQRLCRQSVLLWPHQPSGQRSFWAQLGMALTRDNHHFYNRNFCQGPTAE

- binding: no binding
Binder: DWEYS (biotin (position not given)) [biotinylated DWEYS]
